Our source for the binding values is paper PMC8860610.

The target in test [1] is T1, peptide 6 of the Tof1_C peptide library (Tof1 aa 1001-1022) (Saccharomyces cerevisiae) (UniProt P53840).
T1 sequence (peptide, desthiobiotin linker): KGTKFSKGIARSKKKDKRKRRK
The experiment in a line: pull-down; desthiobiotin-tagged Tof1_C peptides immobilised on streptavidin Dynabeads M-280, buffer M (25 mM HEPES-NaOH pH 7.6, 50 mM NaCl, 0.02% NP-40), prey (S_N, Top1) 1 h, eluted with 5 mM biotin, SDS-PAGE; both purified.

Test [2] deals with T2, GST-tagged Tof1_C (938-1238 aa) (Saccharomyces cerevisiae) (UniProt P53840).
T2 sequence: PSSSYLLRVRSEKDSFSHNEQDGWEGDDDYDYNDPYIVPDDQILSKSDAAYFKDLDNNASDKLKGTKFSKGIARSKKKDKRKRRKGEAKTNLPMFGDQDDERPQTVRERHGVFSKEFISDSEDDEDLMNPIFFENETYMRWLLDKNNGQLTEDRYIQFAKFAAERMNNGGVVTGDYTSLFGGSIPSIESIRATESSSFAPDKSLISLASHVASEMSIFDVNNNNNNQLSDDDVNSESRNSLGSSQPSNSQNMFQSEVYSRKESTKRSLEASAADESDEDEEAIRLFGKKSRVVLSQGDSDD
The experiment in a line: pull-down; 1.5 μM GST fusion proteins (Tof1_N, Tof1_M, Tof1_C, Csm3) as bait on glutathione agarose, 3 μM fl FACT or FACT truncations as prey, 90 min at 4°C, washed with buffer G (300 mM NaCl), eluted with glutathione, SDS-PAGE; both purified.

Results are given in words; binding and its absence hold for the method and conditions named. Binding calls can cover weak binding; strength is not graded here. Where a sequence is shown, tags or fusion partners need not be part of it.

Take “N-domain of Spt16 (S_N) (Saccharomyces cerevisiae) (domain or fragment)”: the binding result in test [1] and in test [2] was “binds” throughout.
